Drug screen on melanoma cell lines: apoptosis marker

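Human melanoma cell lines in 1,536-well plates were treated with two drugs together for 72 h, then fixed, stained and imaged. Values are the share of nuclei positive for cleaved PARP as a percentage of the same share in the DMSO control: 100 is the control level, higher means more apoptosis. Concentrations were fixed for each drug; these are the higher of two levels. These are primary screening values without error estimates. Basal and induced levels differ widely between cell lines.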 An unselected part of the screen is shown. An entry leaves out what has no value listed here. A dash means that no value is listed here.

Compounds and concentrations:
enzastaurin, 4 µM: Cn1cc(C2=C(c3cn(C4CCN(Cc5ccccn5)CC4)c4ccccc34)C(=O)NC2=O)c2ccccc21
BI-78D3, 1 µM: O=c1[nH]nc(Sc2ncc([N+](=O)[O-])s2)n1-c1ccc2c(c1)OCCO2
veliparib, 7 µM: C[C@]1(c2nc3c(C(N)=O)cccc3[nH]2)CCCN1
STA-4783, 0.03 µM: CN(NC(=O)CC(=O)NN(C)C(=S)c1ccccc1)C(=S)c1ccccc1
vincristine, 0.0005 µM: CC[C@]1(O)C[C@H]2CN(CCc3c([nH]c4ccccc34)[C@@](C(=O)OC)(c3cc4c(cc3OC)N(C=O)[C@H]3[C@@](O)(C(=O)OC)[C@H](OC(C)=O)[C@]5(CC)C=CCN6CC[C@]43[C@@H]65)C2)C1
palbociclib, 0.2 µM: CC(=O)c1c(C)c2cnc(Nc3ccc(N4CCNCC4)cn3)nc2n(C2CCCC2)c1=O
etoposide, 0.1 µM: COc1cc([C@@H]2c3cc4c(cc3[C@@H](O[C@@H]3O[C@@H]5CO[C@@H](C)O[C@H]5[C@H](O)[C@H]3O)[C@H]3COC(=O)[C@H]23)OCO4)cc(OC)c1O
sunitinib, 2 µM: CCN(CC)CCNC(=O)c1c(C)[nH]c(/C=C2\C(=O)Nc3ccc(F)cc32)c1C
TCS401, 8.33 µM: O=C(O)C(=O)Nc1sc2c(c1C(=O)O)CCNC2

| Pair | MZ2-MEL | COLO 829 | COLO 792 | 501mel | LB2518-MEL | UACC-257 | SK-MEL-5 | COLO 800 | WM1745 | IPC-298 |
|---|---|---|---|---|---|---|---|---|---|---|
| veliparib and BI-78D3 | 112 | 184 | 87.2 | - | 163 | 51.3 | 124 | 141 | 88.6 | 64.1 |
| vincristine and enzastaurin | 237 | 233 | 132 | - | 195 | 211 | 701 | 151 | 391 | 69.3 |
| sunitinib and vincristine | 85.7 | 122 | 166 | - | 61.2 | 45.7 | 210 | 116 | 219 | 139 |
| sunitinib and BI-78D3 | 145 | 132 | 168 | - | 416 | 42.4 | 140 | 82.4 | 236 | 174 |
| palbociclib and etoposide | 40.6 | 69.2 | 82.0 | - | 76.0 | 49.3 | 208 | 75.1 | 132 | 112 |
| sunitinib and TCS401 | - | 121 | 199 | - | - | 195 | 127 | 163 | - | 313 |
| vincristine and BI-78D3 | 132 | 98.1 | 80.7 | - | 90.5 | 48.2 | 198 | 241 | 125 | 64.1 |
| enzastaurin and sunitinib | 49.1 | 176 | 91.6 | - | 166 | 96.2 | 49.1 | 179 | 309 | 111 |
| veliparib and palbociclib | 27.7 | 201 | 33.6 | - | 63.3 | 67.7 | 174 | 115 | 122 | 70.1 |
| BI-78D3 and enzastaurin | 69.4 | 60.0 | 64.9 | - | 107 | 123 | 55.1 | 55.7 | 96.1 | 120 |
| veliparib and etoposide | 146 | 156 | 134 | - | 246 | 140 | 359 | 135 | 111 | 96.6 |
| palbociclib and TCS401 | 293 | 107 | 45.5 | 124 | 104 | 93.4 | 81.9 | 192 | - | 162 |
| etoposide and enzastaurin | 15.5 | 126 | 26.8 | - | 36.0 | 63.8 | 91.3 | 242 | 96.8 | 85.8 |
| veliparib and STA-4783 | 151 | 355 | 2120 | - | 993 | 234 | 2110 | 350 | 288 | 273 |
| sunitinib and palbociclib | 124 | 143 | 109 | - | 62.9 | 95.8 | 243 | 43.8 | 222 | 122 |
| TCS401 and STA-4783 | 72.3 | 141 | 533 | 2980 | 344 | 14.5 | 46.9 | 98.7 | 316 | 29.2 |
| palbociclib and enzastaurin | 38.2 | 78.3 | 207 | - | 316 | 77.0 | 234 | 141 | 249 | 120 |
| vincristine and TCS401 | 636 | 362 | 125 | 290 | 166 | 85.4 | 807 | 194 | - | 103 |
| vincristine and palbociclib | 234 | 170 | 119 | - | 67.6 | 104 | 406 | 70.5 | 138 | 45.2 |
| veliparib and TCS401 | 129 | 80.1 | 62.7 | 215 | 75.6 | 11.8 | 117 | 173 | 134 | 79.6 |
| palbociclib and BI-78D3 | 46.4 | 229 | 81.6 | - | 132 | 44.0 | 87.0 | 115 | 118 | 132 |
| vincristine and etoposide | 175 | 99.4 | 131 | - | 166 | 78.2 | 249 | 117 | 103 | 104 |
| enzastaurin and veliparib | 80.7 | 232 | 117 | - | 101 | 50.8 | 262 | 64.4 | 194 | 92.0 |
| veliparib and sunitinib | 77.9 | 88.9 | 211 | - | 270 | 33.9 | 252 | 253 | 132 | 86.0 |
| sunitinib and etoposide | 105 | 72.4 | 132 | - | 173 | 37.2 | 143 | 55.8 | 202 | 109 |
| TCS401 and enzastaurin | 35.2 | 155 | 56.9 | 94.5 | 132 | 88.0 | 33.3 | 81.5 | - | 84.8 |
| TCS401 and BI-78D3 | 91.6 | 136 | 54.0 | 46.8 | 114 | 33.0 | 140 | 164 | - | 42.4 |
| vincristine and STA-4783 | 159 | 96.0 | 510 | - | 452 | 73.0 | 126 | 174 | 250 | 113 |
| etoposide and STA-4783 | 152 | 193 | 167 | - | 1490 | 102 | 218 | 477 | 1120 | 52.7 |
| vincristine and veliparib | 618 | 218 | 168 | - | 46.3 | 91.8 | 659 | 380 | 177 | 131 |
| STA-4783 and palbociclib | 35.5 | 220 | 588 | - | 841 | 158 | 286 | 231 | 432 | 53.6 |
| STA-4783 and sunitinib | 131 | 334 | 710 | - | 533 | 68.6 | 500 | 119 | 282 | 141 |
| etoposide and TCS401 | 103 | 93.5 | 81.7 | 126 | 83.1 | 48.3 | 102 | 92.9 | - | 53.4 |
| BI-78D3 and etoposide | 117 | 105 | 66.1 | - | 153 | 76.6 | 160 | 117 | 126 | 68.6 |
| BI-78D3 and STA-4783 | 122 | 345 | 762 | - | 930 | 73.0 | 296 | 66.1 | 276 | 105 |

For reference, 3 entries once more:

{"pair": "veliparib and BI-78D3", "MZ2-MEL": 112, "COLO 829": 184, "COLO 792": 87.2, "LB2518-MEL": 163, "UACC-257": 51.3, "SK-MEL-5": 124, "COLO 800": 141, "WM1745": 88.6, "IPC-298": 64.1}
{"pair": "vincristine and enzastaurin", "MZ2-MEL": 237, "COLO 829": 233, "COLO 792": 132, "LB2518-MEL": 195, "UACC-257": 211, "SK-MEL-5": 701, "COLO 800": 151, "WM1745": 391, "IPC-298": 69.3}
{"pair": "palbociclib and enzastaurin", "MZ2-MEL": 38.2, "COLO 829": 78.3, "COLO 792": 207, "LB2518-MEL": 316, "UACC-257": 77.0, "SK-MEL-5": 234, "COLO 800": 141, "WM1745": 249, "IPC-298": 120}

Data from the primary screen of doi:10.1371/journal.pone.0140310, rounded.